Data: the supplement of paper PMC10849652
This is one part of the list.

By UniProt entry, the sequences of proteins in these tests, tags left out. Where a name states a change or a piece, a line headed by the entry shows the natural chain unless it says otherwise.
UniProt Q96CW6: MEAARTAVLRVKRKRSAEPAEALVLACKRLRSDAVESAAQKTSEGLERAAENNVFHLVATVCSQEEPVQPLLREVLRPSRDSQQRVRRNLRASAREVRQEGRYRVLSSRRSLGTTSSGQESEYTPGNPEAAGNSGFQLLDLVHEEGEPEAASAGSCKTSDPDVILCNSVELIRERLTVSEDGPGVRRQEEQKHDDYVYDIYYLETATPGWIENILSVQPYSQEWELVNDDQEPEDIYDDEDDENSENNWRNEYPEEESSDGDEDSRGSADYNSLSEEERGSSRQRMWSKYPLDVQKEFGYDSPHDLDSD
UniProt Q9BT81: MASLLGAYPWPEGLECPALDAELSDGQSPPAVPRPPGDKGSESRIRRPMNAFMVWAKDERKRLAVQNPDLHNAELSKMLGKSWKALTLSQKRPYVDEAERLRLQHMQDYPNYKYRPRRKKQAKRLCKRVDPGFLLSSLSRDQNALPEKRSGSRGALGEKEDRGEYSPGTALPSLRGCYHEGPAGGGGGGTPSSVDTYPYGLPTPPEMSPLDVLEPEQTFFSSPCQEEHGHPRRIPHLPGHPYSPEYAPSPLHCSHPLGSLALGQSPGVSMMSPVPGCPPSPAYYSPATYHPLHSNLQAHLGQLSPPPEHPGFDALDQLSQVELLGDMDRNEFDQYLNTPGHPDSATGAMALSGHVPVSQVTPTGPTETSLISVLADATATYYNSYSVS
UniProt O60749: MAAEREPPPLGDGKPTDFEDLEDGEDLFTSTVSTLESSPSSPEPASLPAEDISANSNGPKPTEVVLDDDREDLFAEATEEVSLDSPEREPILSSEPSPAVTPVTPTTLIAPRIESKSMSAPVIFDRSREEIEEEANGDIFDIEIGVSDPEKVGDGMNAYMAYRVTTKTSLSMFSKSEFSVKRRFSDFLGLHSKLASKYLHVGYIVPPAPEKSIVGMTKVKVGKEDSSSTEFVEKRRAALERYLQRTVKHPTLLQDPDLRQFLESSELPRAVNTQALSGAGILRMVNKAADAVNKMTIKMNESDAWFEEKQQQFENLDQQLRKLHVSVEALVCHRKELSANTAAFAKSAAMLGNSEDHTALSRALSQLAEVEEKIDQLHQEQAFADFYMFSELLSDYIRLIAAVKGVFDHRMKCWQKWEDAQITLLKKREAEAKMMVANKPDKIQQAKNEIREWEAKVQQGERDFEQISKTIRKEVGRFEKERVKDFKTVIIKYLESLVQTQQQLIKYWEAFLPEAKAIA
UniProt Q02447: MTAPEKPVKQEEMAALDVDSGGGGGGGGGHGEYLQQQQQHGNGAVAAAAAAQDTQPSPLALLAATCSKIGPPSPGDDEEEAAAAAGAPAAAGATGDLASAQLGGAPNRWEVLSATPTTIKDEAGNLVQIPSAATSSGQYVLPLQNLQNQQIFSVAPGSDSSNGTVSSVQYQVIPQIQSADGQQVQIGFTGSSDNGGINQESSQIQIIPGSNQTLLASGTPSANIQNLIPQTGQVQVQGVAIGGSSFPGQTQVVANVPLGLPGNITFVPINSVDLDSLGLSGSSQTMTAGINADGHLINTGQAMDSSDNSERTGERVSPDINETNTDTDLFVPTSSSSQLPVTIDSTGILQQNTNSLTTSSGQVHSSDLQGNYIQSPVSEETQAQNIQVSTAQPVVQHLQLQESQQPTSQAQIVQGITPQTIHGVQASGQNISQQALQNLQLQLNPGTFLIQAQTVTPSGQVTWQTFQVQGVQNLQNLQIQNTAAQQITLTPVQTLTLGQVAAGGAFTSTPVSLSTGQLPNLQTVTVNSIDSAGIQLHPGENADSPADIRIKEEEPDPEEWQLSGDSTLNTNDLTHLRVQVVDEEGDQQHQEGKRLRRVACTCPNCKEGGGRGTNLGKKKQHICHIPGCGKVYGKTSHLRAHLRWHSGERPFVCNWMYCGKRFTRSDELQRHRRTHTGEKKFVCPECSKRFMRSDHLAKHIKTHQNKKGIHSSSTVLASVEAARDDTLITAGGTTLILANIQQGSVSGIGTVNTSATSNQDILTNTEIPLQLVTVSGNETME
UniProt O75971: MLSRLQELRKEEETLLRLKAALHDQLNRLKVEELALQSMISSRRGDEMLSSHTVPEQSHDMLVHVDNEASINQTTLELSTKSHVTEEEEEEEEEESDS
UniProt O00161: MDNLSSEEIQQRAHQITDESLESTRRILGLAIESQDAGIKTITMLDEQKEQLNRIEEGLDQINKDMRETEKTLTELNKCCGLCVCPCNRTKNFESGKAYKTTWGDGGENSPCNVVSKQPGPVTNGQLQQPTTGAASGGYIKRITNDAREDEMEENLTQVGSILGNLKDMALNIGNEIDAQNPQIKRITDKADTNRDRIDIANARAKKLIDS
UniProt Q12824, whole entry, looked up: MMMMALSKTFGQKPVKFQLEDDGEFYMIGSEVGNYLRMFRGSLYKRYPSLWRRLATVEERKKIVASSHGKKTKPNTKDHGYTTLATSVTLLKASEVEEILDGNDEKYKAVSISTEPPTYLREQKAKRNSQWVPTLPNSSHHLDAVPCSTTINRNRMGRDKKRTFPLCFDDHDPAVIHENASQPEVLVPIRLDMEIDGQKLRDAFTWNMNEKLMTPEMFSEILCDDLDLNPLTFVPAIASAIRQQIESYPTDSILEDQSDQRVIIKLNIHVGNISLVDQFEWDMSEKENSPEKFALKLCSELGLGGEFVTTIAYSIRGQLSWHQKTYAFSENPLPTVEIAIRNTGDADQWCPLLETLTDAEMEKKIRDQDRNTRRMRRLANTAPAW
UniProt A6NHR9: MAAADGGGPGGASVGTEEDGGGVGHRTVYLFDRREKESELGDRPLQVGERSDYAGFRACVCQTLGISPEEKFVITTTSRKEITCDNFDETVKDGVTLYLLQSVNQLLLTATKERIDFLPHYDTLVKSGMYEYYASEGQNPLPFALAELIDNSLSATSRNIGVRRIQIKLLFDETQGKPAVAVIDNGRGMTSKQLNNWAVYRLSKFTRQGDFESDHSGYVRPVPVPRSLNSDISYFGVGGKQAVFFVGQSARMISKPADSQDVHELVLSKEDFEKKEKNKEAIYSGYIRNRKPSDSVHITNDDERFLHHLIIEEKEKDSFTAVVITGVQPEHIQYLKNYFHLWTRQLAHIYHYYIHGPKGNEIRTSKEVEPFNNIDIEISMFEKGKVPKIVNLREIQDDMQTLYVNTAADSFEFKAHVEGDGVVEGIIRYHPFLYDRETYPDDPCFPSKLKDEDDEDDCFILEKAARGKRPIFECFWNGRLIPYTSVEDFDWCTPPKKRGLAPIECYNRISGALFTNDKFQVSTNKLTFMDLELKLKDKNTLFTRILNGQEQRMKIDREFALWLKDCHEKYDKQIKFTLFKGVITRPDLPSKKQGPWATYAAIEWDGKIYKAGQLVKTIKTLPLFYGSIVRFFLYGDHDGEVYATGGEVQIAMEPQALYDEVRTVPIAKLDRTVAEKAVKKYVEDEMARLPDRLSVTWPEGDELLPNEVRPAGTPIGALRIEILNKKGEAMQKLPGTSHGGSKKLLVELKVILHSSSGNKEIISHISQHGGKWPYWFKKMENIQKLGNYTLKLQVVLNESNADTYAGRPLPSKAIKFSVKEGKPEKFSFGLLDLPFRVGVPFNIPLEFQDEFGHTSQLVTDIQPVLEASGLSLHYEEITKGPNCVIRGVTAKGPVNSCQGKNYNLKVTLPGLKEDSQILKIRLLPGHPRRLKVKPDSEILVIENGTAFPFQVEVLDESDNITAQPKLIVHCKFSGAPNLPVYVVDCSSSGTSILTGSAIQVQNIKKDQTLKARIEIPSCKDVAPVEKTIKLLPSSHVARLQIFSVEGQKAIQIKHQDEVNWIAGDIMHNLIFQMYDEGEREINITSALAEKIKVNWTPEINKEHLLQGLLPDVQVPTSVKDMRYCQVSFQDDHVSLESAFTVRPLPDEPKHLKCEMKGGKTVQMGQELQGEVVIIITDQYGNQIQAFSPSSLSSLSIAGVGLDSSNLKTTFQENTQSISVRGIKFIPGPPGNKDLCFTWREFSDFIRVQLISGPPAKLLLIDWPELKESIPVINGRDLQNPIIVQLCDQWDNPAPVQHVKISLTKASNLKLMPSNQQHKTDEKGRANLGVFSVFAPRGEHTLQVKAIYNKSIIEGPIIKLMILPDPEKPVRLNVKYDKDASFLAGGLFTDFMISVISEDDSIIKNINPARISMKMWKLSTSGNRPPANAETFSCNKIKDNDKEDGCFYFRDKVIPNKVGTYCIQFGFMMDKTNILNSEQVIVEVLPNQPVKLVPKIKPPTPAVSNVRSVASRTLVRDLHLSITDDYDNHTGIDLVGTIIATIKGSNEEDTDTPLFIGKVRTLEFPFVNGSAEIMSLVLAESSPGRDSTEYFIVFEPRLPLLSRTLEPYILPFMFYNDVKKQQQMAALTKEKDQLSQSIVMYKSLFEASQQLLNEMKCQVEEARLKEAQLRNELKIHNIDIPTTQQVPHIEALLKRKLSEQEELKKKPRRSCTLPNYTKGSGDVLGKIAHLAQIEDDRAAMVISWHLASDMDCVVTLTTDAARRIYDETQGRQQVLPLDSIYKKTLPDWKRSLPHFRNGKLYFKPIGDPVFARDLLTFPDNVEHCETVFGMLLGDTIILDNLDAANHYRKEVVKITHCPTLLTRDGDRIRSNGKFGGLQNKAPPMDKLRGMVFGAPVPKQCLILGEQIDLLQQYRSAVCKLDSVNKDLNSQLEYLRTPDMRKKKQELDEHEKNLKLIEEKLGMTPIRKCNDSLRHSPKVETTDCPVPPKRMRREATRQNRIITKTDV
UniProt Q9UNH7: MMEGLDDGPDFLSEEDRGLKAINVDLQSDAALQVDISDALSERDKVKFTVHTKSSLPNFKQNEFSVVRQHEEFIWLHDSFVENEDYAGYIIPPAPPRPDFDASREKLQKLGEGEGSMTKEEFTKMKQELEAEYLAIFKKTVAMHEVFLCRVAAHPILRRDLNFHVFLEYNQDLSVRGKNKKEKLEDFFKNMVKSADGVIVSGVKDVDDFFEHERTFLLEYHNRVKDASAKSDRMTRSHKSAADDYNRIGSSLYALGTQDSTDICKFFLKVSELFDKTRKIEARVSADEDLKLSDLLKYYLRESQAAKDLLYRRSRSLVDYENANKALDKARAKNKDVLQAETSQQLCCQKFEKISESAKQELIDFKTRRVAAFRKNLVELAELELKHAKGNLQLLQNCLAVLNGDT
UniProt Q8N5G0: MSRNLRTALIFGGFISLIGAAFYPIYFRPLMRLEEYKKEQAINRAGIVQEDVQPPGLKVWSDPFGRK
UniProt Q9Y5X3: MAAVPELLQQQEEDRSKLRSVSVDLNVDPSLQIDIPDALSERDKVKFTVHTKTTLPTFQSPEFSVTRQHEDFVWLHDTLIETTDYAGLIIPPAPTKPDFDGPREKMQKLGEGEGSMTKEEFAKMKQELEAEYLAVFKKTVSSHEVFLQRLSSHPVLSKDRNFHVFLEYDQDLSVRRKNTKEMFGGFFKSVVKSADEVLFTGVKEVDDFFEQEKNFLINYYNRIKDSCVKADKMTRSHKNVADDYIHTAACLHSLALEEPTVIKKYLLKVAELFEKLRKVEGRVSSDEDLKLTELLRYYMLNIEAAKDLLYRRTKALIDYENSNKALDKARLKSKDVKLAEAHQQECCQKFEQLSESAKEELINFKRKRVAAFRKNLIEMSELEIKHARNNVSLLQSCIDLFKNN
UniProt Q9Y5W7: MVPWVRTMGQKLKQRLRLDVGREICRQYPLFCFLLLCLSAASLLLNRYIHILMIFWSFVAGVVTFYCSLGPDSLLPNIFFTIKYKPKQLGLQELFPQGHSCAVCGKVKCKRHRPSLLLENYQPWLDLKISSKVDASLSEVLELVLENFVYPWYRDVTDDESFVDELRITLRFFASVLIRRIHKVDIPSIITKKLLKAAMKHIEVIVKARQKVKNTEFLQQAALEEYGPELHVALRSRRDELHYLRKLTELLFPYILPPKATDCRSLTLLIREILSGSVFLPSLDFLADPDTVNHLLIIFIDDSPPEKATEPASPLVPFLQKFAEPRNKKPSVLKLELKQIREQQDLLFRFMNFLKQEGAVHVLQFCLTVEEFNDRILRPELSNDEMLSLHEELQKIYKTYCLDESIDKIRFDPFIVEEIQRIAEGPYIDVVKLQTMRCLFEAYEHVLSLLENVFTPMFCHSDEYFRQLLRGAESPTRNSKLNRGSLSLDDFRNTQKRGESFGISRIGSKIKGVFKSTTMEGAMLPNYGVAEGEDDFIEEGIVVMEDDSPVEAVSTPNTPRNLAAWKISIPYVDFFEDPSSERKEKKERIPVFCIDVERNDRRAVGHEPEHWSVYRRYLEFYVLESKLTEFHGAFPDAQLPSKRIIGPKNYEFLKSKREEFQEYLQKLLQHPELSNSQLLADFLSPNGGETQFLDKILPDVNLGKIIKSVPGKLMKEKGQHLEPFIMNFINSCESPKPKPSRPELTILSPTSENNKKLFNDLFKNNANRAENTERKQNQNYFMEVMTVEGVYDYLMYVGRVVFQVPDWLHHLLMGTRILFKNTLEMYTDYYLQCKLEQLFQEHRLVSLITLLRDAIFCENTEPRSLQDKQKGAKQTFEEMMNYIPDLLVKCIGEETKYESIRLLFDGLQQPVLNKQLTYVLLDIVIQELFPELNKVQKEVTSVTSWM

Legend:
Assay in all cases: log2 fold change, soluble protein after heating vs DMSO (PISA); higher = thermal stabilisation; K562 cells, 10 uM, 30 min; active = over 0.2 and 3.5 SD of the protein, either way, in both replicates (recomputed)
saracatinib = compound: CN1CCN(CCOc2cc(OC3CCOCC3)c3c(Nc4c(Cl)ccc5c4OCO5)ncnc3c2)CC1 [saracatinib]
Summary of the method: (§1)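 For each measurement, 10 μM compound was applied for 30 min to K562 cells at 2×10^6 cells/mL. Aliquots were heated for 3 min across 48°C-58°C, pooled, and extracted in PBS with 0.5% NP-40 at 4°C; the supernatant after 21,000xg for 90 min was soluble protein. This was quantified by TMTpro 16plex LC-MS/MS with channel sums equalised, and thermal stability was reported relative to control samples from duplicates, on a log2 fold-change scale.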

sotrastaurin = compound: CN1CCN(c2nc(C3=C(c4c[nH]c5ccccc45)C(=O)NC3=O)c3ccccc3n2)CC1 [sotrastaurin]
Summary of the method: as §1

Tubastatin A = compound: CN1CCc2c(c3ccccc3n2Cc2ccc(C(=O)NO)cc2)C1 [Tubastatin A]
Summary of the method: as §1

[1] = compound: CNC(=O)C1=CC=CC=C1NC2=NC(=NC=C2Cl)NC3=C(C=C(C=C3)N4CCOCC4)OC
Summary of the method: as §1

defactinib = compound: CNC(=O)c1ccc(Nc2ncc(C(F)(F)F)c(NCc3nccnc3N(C)S(C)(=O)=O)n2)cc1 [defactinib]
Summary of the method: as §1

rucaparib = compound: CNCc1ccc(-c2[nH]c3cc(F)cc4c3c2CCNC4=O)cc1 [rucaparib]
Summary of the method: as §1

[2] = compound: CNc1nc(-c2ccc3c(N)n[nH]c3c2)cc(N2C[C@@H](C(=O)NC3CCCCC3)CC[C@H]2C)n1
Summary of the method: as §1

encorafenib = compound: COC(=O)N[C@@H](C)CNc1nccc(-c2cn(C(C)C)nc2-c2cc(Cl)cc(NS(C)(=O)=O)c2F)n1 [encorafenib]
Summary of the method: as §1

[3] = compound: COC(=O)[C@H](CCSC)NC(=O)C1=C(C=C(C=C1)NC[C@H](CS)N)C2=CC=CC=C2
Summary of the method: as §1

[4] = compound: COC1=CC=C(C=C1)CN2C=CC3=C2C=C(C=C3)C(=O)NO
Summary of the method: as §1

filanesib = compound: CON(C)C(=O)N1N=C(c2cc(F)ccc2F)S[C@@]1(CCCN)c1ccccc1 [filanesib]
Summary of the method: as §1

zotarolimus = compound: CO[C@H]1C[C@@H]2CC[C@@H](C)[C@@](O)(O2)C(=O)C(=O)N2CCCC[C@H]2C(=O)O[C@H]([C@H](C)C[C@@H]2CC[C@H](n3cnnn3)[C@H](OC)C2)CC(=O)[C@H](C)/C=C(\C)[C@@H](O)[C@@H](OC)C(=O)[C@H](C)C[C@H](C)/C=C/C=C/C=C/1C [zotarolimus]
Summary of the method: as §1

idasanutlin = compound: COc1cc(C(=O)O)ccc1NC(=O)[C@@H]1N[C@@H](CC(C)(C)C)[C@](C#N)(c2ccc(Cl)cc2F)[C@H]1c1cccc(Cl)c1F [idasanutlin]
Summary of the method: as §1

alisertib = compound: COc1cc(Nc2ncc3c(n2)-c2ccc(Cl)cc2C(c2c(F)cccc2OC)=NC3)ccc1C(=O)O [alisertib]
Summary of the method: as §1

[5] = compound: COc1cc2nc(-c3cc(F)ccc3O)nc(N[C@@H]3CNC[C@H]3C(C)(C)O)c2cc1OC
Summary of the method: as §1

gefitinib = compound: COc1cc2ncnc(Nc3ccc(F)c(Cl)c3)c2cc1OCCCN1CCOCC1 [gefitinib]
Summary of the method: as §1

[6] = compound: COc1cccc2cc(-c3nc([C@H]4CC[C@H](C(=O)O)CC4)n4ncnc(N)c34)[nH]c12
Summary of the method: as §1

lapatinib = compound: CS(=O)(=O)CCNCc1ccc(-c2ccc3ncnc(Nc4ccc(OCc5cccc(F)c5)c(Cl)c4)c3c2)o1 [lapatinib]
Summary of the method: as §1

pictilisib = compound: CS(=O)(=O)N1CCN(Cc2cc3nc(-c4cccc5[nH]ncc45)nc(N4CCOCC4)c3s2)CC1 [pictilisib]
Summary of the method: as §1

alvocidib = compound: CN1CC[C@H](c2c(O)cc(O)c3c(=O)cc(-c4ccccc4Cl)oc23)[C@H](O)C1 [alvocidib]
Summary of the method: as §1

Target | log2 fold change (saracatinib) | log2 fold change (sotrastaurin) | log2 fold change (Tubastatin A) | log2 fold change [1] | log2 fold change (defactinib) | log2 fold change (rucaparib) | log2 fold change [2] | log2 fold change (encorafenib) | log2 fold change [3] | log2 fold change [4] | log2 fold change (filanesib) | log2 fold change (zotarolimus) | log2 fold change (idasanutlin) | log2 fold change (alisertib) | log2 fold change [5] | log2 fold change (gefitinib) | log2 fold change [6] | log2 fold change (lapatinib) | log2 fold change (pictilisib) | log2 fold change (alvocidib)
SLC7A6OS (UniProt Q96CW6) | inactive: 0.14 | inactive: 0.008 | inactive: -0.001 | inactive: 0.031 | inactive: -0.144 | inactive: -0.05 | inactive: -0.078 | inactive: -0.004 | inactive: 0.06 | inactive: -0.085 | inactive: 0.006 | inactive: 0.046 | inactive: -0.034 | inactive: -0.073 | inactive: -0.072 | inactive: 0.007 | inactive: -0.037 | inactive: 0.038 | inactive: 0.019 | 
SOX7 isoform 2 (UniProt Q9BT81) | inactive: -0.039 |  | inactive: 0.176 | inactive: 0.451 | inactive: 0.303 |  | inactive: 0.167 |  | inactive: 0.054 | inactive: -0.135 |  | inactive: -0.019 | inactive: 0.127 | inactive: -0.049 | inactive: 0.039 | inactive: 0.034 | inactive: -0.144 | inactive: 0.068 | inactive: -0.048 | inactive: 0.34
SNX2 isoform 2 (UniProt O60749) | inactive: -0.002 | inactive: 0.003 |  |  | inactive: -0.155 | inactive: 0.024 | inactive: 0.176 | inactive: -0.141 | inactive: 0.097 | inactive: 0.258 | inactive: -0.234 | inactive: 0.022 | inactive: -0.054 |  | inactive: 0.462 |  |  | inactive: 0.041 |  | 
SP3 (UniProt Q02447) | inactive: 0.048 | inactive: -0.122 | inactive: -0.205 | inactive: -0.032 | inactive: 0.042 | inactive: -0.004 | inactive: -0.05 | inactive: -0.053 | inactive: 0.04 | inactive: -0.001 | inactive: -0.008 | inactive: -0.024 | inactive: 0.052 | inactive: -0.084 | inactive: 0.037 | inactive: -0.038 | inactive: -0.04 | inactive: 0.016 | inactive: 0.041 | 
SNAPC5 (UniProt O75971) | inactive: 0 |  | inactive: 0.091 | inactive: -0.073 | inactive: -0.048 |  | inactive: 0.018 |  | inactive: -0.016 | inactive: -0.001 |  |  | inactive: 0.207 |  | inactive: -0.046 | inactive: -0.019 |  | inactive: 0.038 | inactive: -0.05 | 
SNX25 (UniProt Q9H3E2) | inactive: 0.036 | inactive: 0.15 |  | inactive: -0.154 |  |  | inactive: 0.055 |  |  | inactive: 0.022 | inactive: 0.046 |  | inactive: -0.133 | inactive: -0.036 | inactive: 0.013 | inactive: -0.144 | inactive: 0.151 | inactive: -0.125 |  | 
SNAP23 isoform 2 (UniProt O00161) | inactive: 0.286 | inactive: 0.104 | inactive: -0.108 | inactive: 0.092 | inactive: -0.088 | inactive: -0.066 | inactive: -0.101 | inactive: 0.104 | inactive: 0.071 | inactive: 0.239 | inactive: -0.121 |  |  | inactive: -0.216 | inactive: -0.352 |  | inactive: 0.075 | inactive: 0.234 |  | 
SMARCB1 (UniProt Q12824) | inactive: -0.09 | inactive: -0.192 | inactive: 0.016 |  | inactive: -0.158 | active: 0.809 | inactive: -0.009 | inactive: -0.247 | inactive: 0.144 | inactive: -0.116 | inactive: 0.026 | inactive: 0.136 |  |  |  |  |  |  | inactive: 0.424 | 
SMARCA4 (UniProt P51532) | inactive: -0.303 | inactive: -0.086 |  | inactive: -0.17 | inactive: 0.134 | inactive: 0.099 | inactive: -0.091 | inactive: 0.049 | inactive: 0.022 | inactive: -0.101 | inactive: 0.124 | inactive: 0.09 | inactive: 0.15 | inactive: -0.086 | inactive: 0.273 |  | inactive: -0.038 | active: -0.544 | inactive: 0.025 | 
SMCHD1 (UniProt A6NHR9) | inactive: -0.238 | inactive: -0.084 | inactive: 0.002 | inactive: -0.028 | inactive: -0.45 | inactive: 0.183 | inactive: 0.075 | inactive: 0.188 | inactive: -0.088 | inactive: 0.043 | inactive: 0.008 | inactive: 0.123 | inactive: 0.062 | inactive: -0.005 | inactive: -0.179 | inactive: -0.078 | inactive: -0.096 | inactive: 0.002 | inactive: 0.035 | 
SMARCA5 (UniProt O60264) | inactive: -0.084 | inactive: -0.235 | inactive: 0.082 | inactive: 0.038 | inactive: -0.145 | inactive: 0.035 | inactive: 0.065 | inactive: 0.116 | inactive: 0.01 | inactive: 0.047 | inactive: 0.047 | inactive: 0.043 | inactive: 0.059 | inactive: -0.064 | inactive: -0.049 | inactive: 0.073 | inactive: -0.144 | inactive: -0.017 | inactive: 0.004 | 
SNX6 (UniProt Q9UNH7) | inactive: -0.018 | inactive: 0.026 | inactive: -0.051 | inactive: -0.125 | inactive: -0.054 | inactive: -0.016 | inactive: 0.041 | inactive: 0.042 | inactive: -0.009 | inactive: -0.036 | inactive: -0.187 | inactive: 0.02 | inactive: -0.01 | inactive: -0.035 | inactive: -0.109 | inactive: -0.123 | inactive: 0.004 | inactive: -0.055 | inactive: -0.252 | 
SORT1 (UniProt Q99523) | inactive: 0.038 | inactive: 0.017 | inactive: -0.011 | inactive: 0.017 | inactive: -0.033 | inactive: 0 | inactive: -0.027 | inactive: -0.017 | inactive: 0.014 | inactive: 0.058 | inactive: -0.066 | inactive: 0.002 | inactive: 0.008 | inactive: -0.016 | inactive: -0.032 | inactive: 0.028 | inactive: 0.056 | inactive: 0.022 | inactive: 0.003 | 
SMIM20 isoform 2 (UniProt Q8N5G0) | inactive: 0 | inactive: 0.056 | inactive: -0.013 | inactive: 0.018 | inactive: -0.138 | inactive: -0.088 | inactive: -0.094 | inactive: -0.055 | inactive: -0.143 |  | inactive: 0.093 | inactive: -0.037 | inactive: 0.095 | inactive: -0.056 | inactive: 0.024 | inactive: 0.057 | inactive: 0.091 | inactive: -0.044 | inactive: -0.044 | 
SNX5 (UniProt Q9Y5X3) | inactive: 0 | inactive: -0.006 | inactive: -0.013 | inactive: -0.117 | inactive: -0.014 | inactive: -0.054 | inactive: 0.012 | inactive: 0.03 | inactive: 0.006 | inactive: -0.06 | inactive: -0.172 | inactive: 0.015 | inactive: -0.015 | inactive: -0.012 | inactive: -0.066 | inactive: -0.136 | inactive: 0.008 | inactive: 0.01 | inactive: -0.085 | 
SNX14 (UniProt Q9Y5W7) | inactive: -0.125 | inactive: -0.069 | inactive: 0.063 | inactive: 0.011 | inactive: -0.034 | inactive: -0.011 | inactive: 0.105 | inactive: -0.025 | inactive: 0.003 | inactive: 0.152 | inactive: -0.231 |  | inactive: 0.047 | inactive: -0.11 | inactive: -0.003 | inactive: 0.003 | inactive: 0.102 | inactive: -0.001 |  | 
SMARCE1 (UniProt Q969G3) | inactive: -0.036 | inactive: -0.204 | inactive: 0.018 | inactive: -0.032 | active: 0.579 | inactive: -0.016 | inactive: 0.023 | inactive: 0.166 | inactive: -0.199 | inactive: 0.035 | inactive: 0.058 | inactive: 0.052 | inactive: 0.013 | inactive: -0.21 | inactive: -0.07 | inactive: 0.066 | inactive: 0.206 | inactive: 0.038 | inactive: -0.062 | 

Part of the list above, tab-delimited:
Target	log2 fold change (saracatinib)	log2 fold change (sotrastaurin)	log2 fold change (Tubastatin A)	log2 fold change [1]	log2 fold change (defactinib)	log2 fold change (rucaparib)	log2 fold change [2]	log2 fold change (encorafenib)	log2 fold change [3]	log2 fold change [4]	log2 fold change (filanesib)	log2 fold change (zotarolimus)	log2 fold change (idasanutlin)	log2 fold change (alisertib)	log2 fold change [5]	log2 fold change (gefitinib)	log2 fold change [6]	log2 fold change (lapatinib)	log2 fold change (pictilisib)	log2 fold change (alvocidib)
SLC7A6OS (UniProt Q96CW6)	inactive: 0.14	inactive: 0.008	inactive: -0.001	inactive: 0.031	inactive: -0.144	inactive: -0.05	inactive: -0.078	inactive: -0.004	inactive: 0.06	inactive: -0.085	inactive: 0.006	inactive: 0.046	inactive: -0.034	inactive: -0.073	inactive: -0.072	inactive: 0.007	inactive: -0.037	inactive: 0.038	inactive: 0.019	
SP3 (UniProt Q02447)	inactive: 0.048	inactive: -0.122	inactive: -0.205	inactive: -0.032	inactive: 0.042	inactive: -0.004	inactive: -0.05	inactive: -0.053	inactive: 0.04	inactive: -0.001	inactive: -0.008	inactive: -0.024	inactive: 0.052	inactive: -0.084	inactive: 0.037	inactive: -0.038	inactive: -0.04	inactive: 0.016	inactive: 0.041	
SNX6 (UniProt Q9UNH7)	inactive: -0.018	inactive: 0.026	inactive: -0.051	inactive: -0.125	inactive: -0.054	inactive: -0.016	inactive: 0.041	inactive: 0.042	inactive: -0.009	inactive: -0.036	inactive: -0.187	inactive: 0.02	inactive: -0.01	inactive: -0.035	inactive: -0.109	inactive: -0.123	inactive: 0.004	inactive: -0.055	inactive: -0.252	
SMARCE1 (UniProt Q969G3)	inactive: -0.036	inactive: -0.204	inactive: 0.018	inactive: -0.032	active: 0.579	inactive: -0.016	inactive: 0.023	inactive: 0.166	inactive: -0.199	inactive: 0.035	inactive: 0.058	inactive: 0.052	inactive: 0.013	inactive: -0.21	inactive: -0.07	inactive: 0.066	inactive: 0.206	inactive: 0.038	inactive: -0.062	
